Data as given in PMC11554844, “BEACH domain proteins function as cargo-sorting adaptors in secretory and endocytic pathways” (The Journal of Cell Biology, 2024).

The chains behind the UniProt entries cited, without tags or fusion partners. Where a name states a change or a piece, a line headed by the entry shows the natural chain unless it says otherwise.
UniProt P16410: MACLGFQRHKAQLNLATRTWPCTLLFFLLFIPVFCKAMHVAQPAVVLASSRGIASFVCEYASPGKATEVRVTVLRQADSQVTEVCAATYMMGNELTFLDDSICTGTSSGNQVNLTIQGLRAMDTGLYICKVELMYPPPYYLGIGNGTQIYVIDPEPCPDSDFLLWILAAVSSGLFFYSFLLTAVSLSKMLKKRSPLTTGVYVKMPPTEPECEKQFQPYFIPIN

target: GST-CTLA4 (201–215) (human) (UniProt P16410); experiment: pull-down; GST-CTLA4 (201–215) immobilised on glutathione-sepharose beads, incubated overnight at 4°C with purified protein (1 µg MBP fusion, 1 µg NBEAL2, 0.2 µg LRBA, or purified 3xFlag-EGFP-NBEAL2 fragment); washed six times in 50 mM Tris-HCl pH 7.4, 150 mM NaCl, 1% Triton X-100; detected by blot (anti-NBEAL2, anti-LRBA, anti-Flag, anti-MBP); both purified

Substance | binding
PH-BEACH domain of LRBA fused to MBP (from UniProt P50851-1) (domain or fragment) | binds
PH-BEACH domain of NBEAL1 fused to MBP (from UniProt Q6ZS30-2) (domain or fragment) | binds
PH-BEACH domain of NBEAL2 fused to MBP (from UniProt Q6ZNJ1-1) (domain or fragment) | binds

These are yes or no findings as the source states them, for the method shown. Binding can be weak; no strength is given.
